In publication PMC8063088 one finds binding data, which are given here for one molecule.

Results are given in words; binding and its absence hold for the method and conditions named. In cells and extracts the contact can be indirect. Some binding calls cover weakened binding; strength is not graded here.

This assay has as its target T1, RGMB, endogenous in adult mouse cortex (mouse (endogenous in adult mouse cortex)), Q7TQ33.
T1 chain: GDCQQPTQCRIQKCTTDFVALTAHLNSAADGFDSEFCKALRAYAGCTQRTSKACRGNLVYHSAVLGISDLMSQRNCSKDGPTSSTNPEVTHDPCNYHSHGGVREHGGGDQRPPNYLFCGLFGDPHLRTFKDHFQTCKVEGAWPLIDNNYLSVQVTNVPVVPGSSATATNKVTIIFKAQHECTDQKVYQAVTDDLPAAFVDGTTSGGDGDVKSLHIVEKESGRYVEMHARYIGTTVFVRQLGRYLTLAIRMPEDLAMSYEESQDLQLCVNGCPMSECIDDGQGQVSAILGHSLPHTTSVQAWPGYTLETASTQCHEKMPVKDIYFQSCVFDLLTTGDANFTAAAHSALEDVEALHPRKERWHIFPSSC
The assay is described as follows: co-IP; adult mouse cortex lysate (40 mM Tris-HCl pH 7.5, 200 mM NaCl, 10% glycerol, 5 mM EDTA, 0.4% NP-40); sheep anti-RGMB antibody or non-specific sheep IgG, protein G beads; immunoblot for NET1, NEO1, RGMB. The following applies: remark: other sources report otherwise. (In western blotting, separated proteins are transferred to a membrane and probed.)

B1: NEO1, endogenous in mouse brain and neurons, P97798 37-1492 (receptor)
chain: RPASGAAATKSGSPPQSAGASVRTFTPFYFLVEPVDTLSVRGSSVILNCSAYSEPSPNIEWKKDGTFLNLESDDRRQLLPDGSLFISNVVHSKHNKPDEGFYQCVATVDNLGTIVSRTAKLTVAGLPRFTSQPEPSSVYVGNSAILNCEVNADLVPFVRWEQNRQPLLLDDRIVKLPSGTLVISNATEGDGGLYRCIVESGGPPKFSDEAELKVLQDPEEIVDLVFLMRPSSMMKVTGQSAVLPCVVSGLPAPVVRWMKNEEVLDTESSGRLVLLAGGCLEISDVTEDDAGTYFCIADNGNKTVEAQAELTVQVPPGFLKQPANIYAHESMDIVFECEVTGKPTPTVKWVKNGDVVIPSDYFKIVKEHNLQVLGLVKSDEGFYQCIAENDVGNAQAGAQLIILEHDVAIPTLPPTSLTSATTDHLAPATTGPLPSAPRDVVASLVSTRFIKLTWRTPASDPHGDNLTYSVFYTKEGVARERVENTSQPGEMQVTIQNLMPATVYIFKVMAQNKHGSGESSAPLRVETQPEVQLPGPAPNIRAYATSPTSITVTWETPLSGNGEIQNYKLYYMEKGTDKEQDIDVSSHSYTINGLKKYTEYSFRVVAYNKHGPGVSTQDVAVRTLSDVPSAAPQNLSLEVRNSKSIVIHWQPPSSTTQNGQITGYKIRYRKASRKSDVTETLVTGTQLSQLIEGLDRGTEYNFRVAALTVNGTGPATDWLSAETFESDLDETRVPEVPSSLHVRPLVTSIVVSWTPPENQNIVVRGYAIGYGIGSPHAQTIKVDYKQRYYTIENLDPSSHYVITLKAFNNVGEGIPLYESAVTRPHTDTSEVDLFVINAPYTPVPDPTPMMPPVGVQASILSHDTIRITWADNSLPKHQKITDSRYYTVRWKTNIPANTKYKNANATTLSYLVTGLKPNTLYEFSVMVTKGRRSSTWSMTAHGATFELVPTSPPKDVTVVSKEGKPRTIIVNWQPPSEANGKITGYIIYYSTDVNAEIHDWVIEPVVGNRLTHQIQELTLDTPYYFKIQARNSKGMGPMSEAVQFRTPKADSSDKMPNDQALGSAGKGSRLPDLGSDYKPPMSGSNSPHGSPTSPLDSNMLLVIIVSVGVITIVVVVVIAVFCTRRTTSHQKKKRAACKSVNGSHKYKGNCKDVKPPDLWIHHERLELKPIDKSPDPNPVMTDTPIPRNSQDITPVDNSMDSNIHQRRNSYRGHESEDSMSTLAGRRGMRPKMMMPFDSQPPQPVISAHPIHSLDNPHHHFHSSSLASPARSHLYHPSSPWPIGTSMSLSDRANSTESVRNTPSTDTMPASSSQTCCTDHQDPEGATSSSYLASSQEEDSGQSLPTAHVRPSHPLKSFAVPAIPPPGPPLYDPALPSTPLLSQQALNHHIHSVKTASIGTLGRSRPPMPVVVPSAPEVQETTRMLEDSESSYEPDELTKEMAHLEGLMKDLNAITTA
Regarding B1, the binding result is reported as “binds”.
